Assay results taken from PMC12344293, “A new class of binding-protein dependent solute transporter exemplified by the TAXI-GltS system from Bordetella pertussis” (Communications Biology, 2025).
Results are given in words; binding and its absence hold for the method and conditions named. Each block holds one binder with its values, some of them ahead of it.

Experiments:
[1] = target: BP0403 C-terminal domain (BP0403SBP) (Bordetella pertussis) (UniProt Q7VSK8); experiment: SEC; Superdex 200 Increase 10/300 GL, 0.5 ml/min, SEC buffer (50 mM Tris-HCl pH 8, 100 mM NaCl, 5% glycerol); IMAC eluate incubated 20 min at room temperature with 5 mM EDTA and 100 mM glycerol before loading; elution volume compared with a calibration curve of molecular weight standards; both purified
[2] = target: BP0403 N-terminal domain (BP0403NTD) (Bordetella pertussis) (UniProt Q7VSK8); experiment: as above

- binding [1]: no binding
B1: BP0403 C-terminal domain (BP0403SBP) (domain or fragment, UniProt Q7VSK8 208-503)
chain: YPLATGPDKGEYLAFGQALAAIGRNEQVRVIPLITGGSADNMAMLRSGAAVAALSQADIAQLAYEGKGPFESQGPFSGLRALGSLYPELVHIVVRQGDGIATVGALRGKKIALGPSGSAVRTTLETVLAAHGLQPGRDYAVIDTPAAAALPQLSEGRVDAVAQVIGTPAAPLRAALTQARLALLPLDRAAIDKLVQADPTLMALDIPANTYPSQAAAIPTVGMAALLVTTADLTRDEAAHMVDVVYRAGQDLLAAGSAQGAQVSAANAGRGLSIPLHDGAVEAFEKLGAPPLPEGR

- binding [2]: no binding
B2: BP0403 N-terminal domain (BP0403NTD) (domain or fragment, UniProt Q7VSK8 20-139)
chain: SRAPDTEILQRDVGQTLAATYGPDLFDIVALRRMGSATDSTAPPGQTRRVVYYDVVLGLKKDLTLGAWDQPGAAALVSLLGAGPRSISGVKSSGNAAGDQIVAHASAIYQRDAEQWVHVA
